Laboratory results: PMC5117208
No constants are given. Whether binding was seen depends on the method and setting. In cells and extracts the contact can be indirect. Some results given as binding are weak or reduced against the parent protein; the word gives no strength. For part of these data: Tags and fused reporters may be left off the sequences shown.

Protein sequences, listed by entry. Tags and fused reporters are not part of them.
UniProt P68106: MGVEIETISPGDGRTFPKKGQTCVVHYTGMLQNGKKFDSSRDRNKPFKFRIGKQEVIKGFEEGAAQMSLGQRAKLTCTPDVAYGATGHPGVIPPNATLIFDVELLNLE
UniProt Q92736: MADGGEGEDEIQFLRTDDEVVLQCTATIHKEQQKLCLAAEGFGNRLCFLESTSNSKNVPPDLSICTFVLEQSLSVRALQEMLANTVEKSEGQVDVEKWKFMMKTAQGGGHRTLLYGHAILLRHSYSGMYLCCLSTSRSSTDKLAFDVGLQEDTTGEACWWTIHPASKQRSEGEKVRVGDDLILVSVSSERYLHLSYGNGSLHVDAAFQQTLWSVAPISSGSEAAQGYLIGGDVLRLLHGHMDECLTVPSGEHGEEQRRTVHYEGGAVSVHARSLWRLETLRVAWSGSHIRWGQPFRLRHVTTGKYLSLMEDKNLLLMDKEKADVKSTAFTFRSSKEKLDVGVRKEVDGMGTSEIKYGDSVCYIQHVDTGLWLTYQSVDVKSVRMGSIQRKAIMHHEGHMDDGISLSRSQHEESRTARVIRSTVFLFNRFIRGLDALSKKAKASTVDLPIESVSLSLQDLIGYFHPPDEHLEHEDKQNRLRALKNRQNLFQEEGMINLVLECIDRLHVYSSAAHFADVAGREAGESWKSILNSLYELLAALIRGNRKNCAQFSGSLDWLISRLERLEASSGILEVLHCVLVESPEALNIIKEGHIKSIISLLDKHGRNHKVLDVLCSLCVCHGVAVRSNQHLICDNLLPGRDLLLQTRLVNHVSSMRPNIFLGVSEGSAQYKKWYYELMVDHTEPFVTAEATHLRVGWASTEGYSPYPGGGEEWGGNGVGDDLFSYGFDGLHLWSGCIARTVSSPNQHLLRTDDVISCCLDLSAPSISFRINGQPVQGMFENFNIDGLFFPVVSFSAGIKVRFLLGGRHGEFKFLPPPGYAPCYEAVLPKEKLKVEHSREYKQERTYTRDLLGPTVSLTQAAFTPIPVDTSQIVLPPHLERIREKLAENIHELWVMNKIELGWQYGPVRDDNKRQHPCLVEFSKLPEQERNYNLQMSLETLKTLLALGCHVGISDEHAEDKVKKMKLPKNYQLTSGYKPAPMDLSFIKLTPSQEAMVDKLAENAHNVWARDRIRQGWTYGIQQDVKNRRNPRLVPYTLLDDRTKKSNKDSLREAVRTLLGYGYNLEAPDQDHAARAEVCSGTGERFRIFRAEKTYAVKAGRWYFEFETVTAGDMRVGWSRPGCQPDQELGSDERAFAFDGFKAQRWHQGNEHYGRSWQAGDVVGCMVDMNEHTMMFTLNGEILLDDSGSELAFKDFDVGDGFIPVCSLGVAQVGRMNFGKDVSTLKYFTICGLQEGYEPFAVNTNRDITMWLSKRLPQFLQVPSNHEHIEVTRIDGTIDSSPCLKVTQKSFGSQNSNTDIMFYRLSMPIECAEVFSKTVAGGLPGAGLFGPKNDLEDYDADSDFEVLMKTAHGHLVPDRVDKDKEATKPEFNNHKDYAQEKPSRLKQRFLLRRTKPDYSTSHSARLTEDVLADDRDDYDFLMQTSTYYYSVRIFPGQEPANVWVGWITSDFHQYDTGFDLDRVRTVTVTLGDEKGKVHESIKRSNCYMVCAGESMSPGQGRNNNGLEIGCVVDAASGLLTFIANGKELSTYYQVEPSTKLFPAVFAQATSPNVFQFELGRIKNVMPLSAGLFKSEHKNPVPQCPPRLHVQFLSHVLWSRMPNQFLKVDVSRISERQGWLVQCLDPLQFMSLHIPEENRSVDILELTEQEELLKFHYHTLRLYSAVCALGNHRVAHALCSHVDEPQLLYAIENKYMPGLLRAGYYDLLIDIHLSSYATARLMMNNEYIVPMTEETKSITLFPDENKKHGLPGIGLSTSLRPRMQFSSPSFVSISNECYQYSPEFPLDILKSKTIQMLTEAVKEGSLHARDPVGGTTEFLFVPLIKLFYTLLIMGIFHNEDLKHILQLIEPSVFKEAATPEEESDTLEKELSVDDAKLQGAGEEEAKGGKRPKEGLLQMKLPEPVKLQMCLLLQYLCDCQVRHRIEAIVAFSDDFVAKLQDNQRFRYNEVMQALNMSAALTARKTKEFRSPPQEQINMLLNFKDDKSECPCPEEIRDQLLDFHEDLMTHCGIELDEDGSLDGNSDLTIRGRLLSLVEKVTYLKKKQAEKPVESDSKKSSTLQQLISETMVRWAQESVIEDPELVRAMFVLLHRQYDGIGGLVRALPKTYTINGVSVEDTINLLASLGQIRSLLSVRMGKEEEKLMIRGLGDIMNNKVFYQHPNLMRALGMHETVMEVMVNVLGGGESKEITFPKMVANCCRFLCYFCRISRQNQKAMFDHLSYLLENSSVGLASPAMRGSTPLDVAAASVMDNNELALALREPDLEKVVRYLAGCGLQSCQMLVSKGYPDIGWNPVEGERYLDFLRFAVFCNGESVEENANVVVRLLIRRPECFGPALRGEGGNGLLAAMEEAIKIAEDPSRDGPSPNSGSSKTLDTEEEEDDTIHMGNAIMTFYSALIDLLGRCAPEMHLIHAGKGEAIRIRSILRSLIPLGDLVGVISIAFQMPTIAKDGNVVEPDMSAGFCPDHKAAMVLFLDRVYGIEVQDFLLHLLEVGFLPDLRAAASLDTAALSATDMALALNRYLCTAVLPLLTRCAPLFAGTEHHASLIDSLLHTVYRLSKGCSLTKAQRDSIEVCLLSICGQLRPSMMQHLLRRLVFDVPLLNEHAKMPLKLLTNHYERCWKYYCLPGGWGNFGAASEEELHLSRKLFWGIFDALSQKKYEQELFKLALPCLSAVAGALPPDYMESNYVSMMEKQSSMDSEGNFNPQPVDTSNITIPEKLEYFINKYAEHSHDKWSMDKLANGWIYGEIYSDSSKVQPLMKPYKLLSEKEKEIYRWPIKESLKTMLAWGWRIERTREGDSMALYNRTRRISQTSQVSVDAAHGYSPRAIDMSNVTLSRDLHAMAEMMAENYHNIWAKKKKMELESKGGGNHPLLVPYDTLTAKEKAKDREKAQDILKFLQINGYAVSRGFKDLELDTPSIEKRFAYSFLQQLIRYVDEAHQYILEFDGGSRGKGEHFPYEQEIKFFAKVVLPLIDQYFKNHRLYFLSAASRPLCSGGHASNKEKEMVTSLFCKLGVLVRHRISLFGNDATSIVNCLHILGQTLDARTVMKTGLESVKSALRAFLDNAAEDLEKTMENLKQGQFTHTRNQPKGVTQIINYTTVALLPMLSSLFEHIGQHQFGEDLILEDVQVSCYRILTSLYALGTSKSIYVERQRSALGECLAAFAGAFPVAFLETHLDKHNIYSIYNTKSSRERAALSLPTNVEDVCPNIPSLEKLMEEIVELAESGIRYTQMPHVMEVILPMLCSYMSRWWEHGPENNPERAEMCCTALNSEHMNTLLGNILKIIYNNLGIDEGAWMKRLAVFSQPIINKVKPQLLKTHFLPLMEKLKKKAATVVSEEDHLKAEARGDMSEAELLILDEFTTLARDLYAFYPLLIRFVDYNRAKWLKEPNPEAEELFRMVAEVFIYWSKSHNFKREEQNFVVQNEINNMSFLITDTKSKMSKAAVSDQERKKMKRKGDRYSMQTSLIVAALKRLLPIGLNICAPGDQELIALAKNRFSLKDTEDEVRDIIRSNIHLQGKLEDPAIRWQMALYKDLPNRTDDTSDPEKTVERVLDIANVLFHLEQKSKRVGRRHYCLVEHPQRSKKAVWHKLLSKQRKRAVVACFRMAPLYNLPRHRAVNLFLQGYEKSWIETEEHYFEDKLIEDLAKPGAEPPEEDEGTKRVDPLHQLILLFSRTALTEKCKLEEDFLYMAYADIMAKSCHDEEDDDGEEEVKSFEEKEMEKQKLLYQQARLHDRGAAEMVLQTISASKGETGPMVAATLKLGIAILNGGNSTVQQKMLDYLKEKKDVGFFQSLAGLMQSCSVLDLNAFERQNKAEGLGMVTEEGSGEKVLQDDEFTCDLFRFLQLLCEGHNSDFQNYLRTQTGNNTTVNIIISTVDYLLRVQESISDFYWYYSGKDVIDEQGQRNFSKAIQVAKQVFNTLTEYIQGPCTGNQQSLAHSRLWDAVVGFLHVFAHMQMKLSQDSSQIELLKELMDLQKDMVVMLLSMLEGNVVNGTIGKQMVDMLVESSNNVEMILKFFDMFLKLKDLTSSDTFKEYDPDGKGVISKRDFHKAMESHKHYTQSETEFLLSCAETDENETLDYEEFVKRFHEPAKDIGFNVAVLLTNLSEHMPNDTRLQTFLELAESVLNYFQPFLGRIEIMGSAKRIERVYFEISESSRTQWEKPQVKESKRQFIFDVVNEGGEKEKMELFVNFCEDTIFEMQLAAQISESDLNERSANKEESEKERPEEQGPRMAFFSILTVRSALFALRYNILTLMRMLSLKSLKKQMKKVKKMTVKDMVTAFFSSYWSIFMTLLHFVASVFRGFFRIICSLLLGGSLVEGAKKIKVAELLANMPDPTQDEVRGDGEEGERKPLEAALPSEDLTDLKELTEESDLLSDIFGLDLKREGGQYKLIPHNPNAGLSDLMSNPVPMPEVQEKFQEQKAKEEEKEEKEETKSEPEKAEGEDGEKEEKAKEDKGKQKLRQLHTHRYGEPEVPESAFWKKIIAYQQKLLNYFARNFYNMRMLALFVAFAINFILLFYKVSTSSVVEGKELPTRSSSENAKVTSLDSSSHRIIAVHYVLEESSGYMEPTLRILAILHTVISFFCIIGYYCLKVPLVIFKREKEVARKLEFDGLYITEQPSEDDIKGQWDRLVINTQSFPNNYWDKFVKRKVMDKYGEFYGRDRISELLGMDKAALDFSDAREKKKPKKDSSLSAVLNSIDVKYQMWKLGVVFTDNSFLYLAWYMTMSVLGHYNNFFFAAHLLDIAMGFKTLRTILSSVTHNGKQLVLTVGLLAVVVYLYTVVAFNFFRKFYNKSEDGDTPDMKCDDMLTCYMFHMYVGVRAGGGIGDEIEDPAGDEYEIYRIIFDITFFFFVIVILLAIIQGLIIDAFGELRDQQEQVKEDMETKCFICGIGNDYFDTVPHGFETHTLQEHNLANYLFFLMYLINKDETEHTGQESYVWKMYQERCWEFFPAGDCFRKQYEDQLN

Tests used:
GST–FKBP12.6 = GST–FKBP12.6 (UniProt P68106); test: pull-down; purified GST-fusion protein (1 µM) captured on glutathione Sepharose, incubated with CHAPS-solubilised pig cardiac SR; RyR2 detected by immunoblot with Ab1093; residual micromolar Ca2+; only the target purified
[1] = molecular target: T1, HA–CSQ2 (hemagglutinin-tagged human calsequestrin 2) (human) (UniProt O14958); test: co-IP; competition: HA–CSQ2 immunoprecipitated with anti-HA from lysates of HEK293 cells co-expressing RyR2, in the presence of 1 µM GST–LL1 or GST alone
T1 sequence: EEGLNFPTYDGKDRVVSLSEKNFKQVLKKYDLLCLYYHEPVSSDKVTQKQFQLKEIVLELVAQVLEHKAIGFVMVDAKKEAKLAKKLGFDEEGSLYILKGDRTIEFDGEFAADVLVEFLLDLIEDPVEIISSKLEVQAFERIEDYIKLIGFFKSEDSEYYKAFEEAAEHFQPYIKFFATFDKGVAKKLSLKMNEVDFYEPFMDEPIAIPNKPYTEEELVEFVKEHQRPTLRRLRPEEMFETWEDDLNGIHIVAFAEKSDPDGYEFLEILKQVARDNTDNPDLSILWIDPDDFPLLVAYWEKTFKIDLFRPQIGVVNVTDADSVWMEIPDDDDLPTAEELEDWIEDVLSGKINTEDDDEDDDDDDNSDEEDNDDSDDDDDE

[2] = molecular target: T1, HA–CSQ2 (hemagglutinin-tagged human calsequestrin 2) (human); test: co-IP; HA–CSQ2 immunoprecipitated with anti-HA from CHAPS-solubilised lysates of co-transfected HEK293 cells; partner detected by immunoblot (Ab1093 or anti-Myc); non-immune rabbit IgG as control; residual micromolar Ca2+

| binding (GST–FKBP12.6) | binding [1] | binding [2] | Substance |
| --- | --- | --- | --- |
| binds |  |  | native RyR2 from pig cardiac SR (from UniProt A0A5G2R1W3 1-4900) |
|  | binds | binds | recombinant human RyR2 expressed in HEK293 cells (from UniProt Q92736 1-4967) |
